Assay results taken from PMC9091245.
Results are given in words; binding and its absence hold for the method and conditions named. In cells and extracts the contact can be indirect. Some results given as binding are weak or reduced against the parent protein; the word gives no strength.

T1: family with sequence similarity 64, member A (FAM64A) (human) (UniProt Q9BSJ6)
T1 sequence: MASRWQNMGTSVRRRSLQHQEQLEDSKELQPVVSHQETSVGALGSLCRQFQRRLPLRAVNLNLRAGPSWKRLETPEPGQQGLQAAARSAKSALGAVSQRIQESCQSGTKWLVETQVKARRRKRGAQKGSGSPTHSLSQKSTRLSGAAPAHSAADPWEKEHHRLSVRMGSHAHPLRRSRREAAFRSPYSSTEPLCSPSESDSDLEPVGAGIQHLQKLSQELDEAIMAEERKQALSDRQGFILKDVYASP

T2: forkhead box protein M1 (FOXM1) (human) (UniProt Q08050)
T2 sequence: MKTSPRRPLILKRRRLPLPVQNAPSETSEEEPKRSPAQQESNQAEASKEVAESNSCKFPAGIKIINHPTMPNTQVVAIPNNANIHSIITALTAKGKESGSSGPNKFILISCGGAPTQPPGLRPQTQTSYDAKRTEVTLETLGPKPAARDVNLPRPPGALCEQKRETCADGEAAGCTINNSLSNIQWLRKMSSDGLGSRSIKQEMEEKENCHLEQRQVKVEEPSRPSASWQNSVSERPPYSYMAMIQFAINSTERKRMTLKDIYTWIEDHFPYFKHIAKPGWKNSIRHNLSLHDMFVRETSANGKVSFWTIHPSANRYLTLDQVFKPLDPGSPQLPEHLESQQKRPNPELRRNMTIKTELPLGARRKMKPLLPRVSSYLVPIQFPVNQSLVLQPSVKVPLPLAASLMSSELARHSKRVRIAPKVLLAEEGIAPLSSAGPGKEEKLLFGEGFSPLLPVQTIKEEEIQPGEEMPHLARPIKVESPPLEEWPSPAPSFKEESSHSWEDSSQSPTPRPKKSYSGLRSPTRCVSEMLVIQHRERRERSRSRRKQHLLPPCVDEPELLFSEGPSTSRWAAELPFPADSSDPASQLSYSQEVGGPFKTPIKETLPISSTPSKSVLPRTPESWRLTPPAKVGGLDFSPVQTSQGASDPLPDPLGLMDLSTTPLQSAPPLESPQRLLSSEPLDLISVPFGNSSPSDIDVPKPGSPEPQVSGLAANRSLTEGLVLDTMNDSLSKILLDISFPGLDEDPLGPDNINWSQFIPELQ


Assays:
[1] = biological target: T1, family with sequence similarity 64, member A (FAM64A) (human); experiment: co-IP; HNSCC cells lysed in RIPA buffer at 4 °C; supernatants incubated with primary antibodies overnight at 4 °C, then with protein A/G magnetic beads for 8 h; western blotting; done in both directions
[2] = biological target: T2, forkhead box protein M1 (FOXM1) (human); experiment: as above

Row | binding [1] | binding [2] | Binder
1 | binds |  | forkhead box protein M1 (FOXM1) (protein, UniProt Q08050 1-763) MKTSPRRPLILKRRRLPLPVQNAPSETSEEEPKRSPAQQESNQAEASKEVAESNSCKFPAGIKIINHPTMPNTQVVAIPNNANIHSIITALTAKGKESGSSGPNKFILISCGGAPTQPPGLRPQTQTSYDAKRTEVTLETLGPKPAARDVNLPRPPGALCEQKRETCADGEAAGCTINNSLSNIQWLRKMSSDGLGSRSIKQEMEEKENCHLEQRQVKVEEPSRPSASWQNSVSERPPYSYMAMIQFAINSTERKRMTLKDIYTWIEDHFPYFKHIAKPGWKNSIRHNLSLHDMFVRETSANGKVSFWTIHPSANRYLTLDQVFKPLDPGSPQLPEHLESQQKRPNPELRRNMTIKTELPLGARRKMKPLLPRVSSYLVPIQFPVNQSLVLQPSVKVPLPLAASLMSSELARHSKRVRIAPKVLLAEEGIAPLSSAGPGKEEKLLFGEGFSPLLPVQTIKEEEIQPGEEMPHLARPIKVESPPLEEWPSPAPSFKEESSHSWEDSSQSPTPRPKKSYSGLRSPTRCVSEMLVIQHRERRERSRSRRKQHLLPPCVDEPELLFSEGPSTSRWAAELPFPADSSDPASQLSYSQEVGGPFKTPIKETLPISSTPSKSVLPRTPESWRLTPPAKVGGLDFSPVQTSQGASDPLPDPLGLMDLSTTPLQSAPPLESPQRLLSSEPLDLISVPFGNSSPSDIDVPKPGSPEPQVSGLAANRSLTEGLVLDTMNDSLSKILLDISFPGLDEDPLGPDNINWSQFIPELQ
2 |  | binds | family with sequence similarity 64, member A (FAM64A) (protein, UniProt Q9BSJ6 1-248) MASRWQNMGTSVRRRSLQHQEQLEDSKELQPVVSHQETSVGALGSLCRQFQRRLPLRAVNLNLRAGPSWKRLETPEPGQQGLQAAARSAKSALGAVSQRIQESCQSGTKWLVETQVKARRRKRGAQKGSGSPTHSLSQKSTRLSGAAPAHSAADPWEKEHHRLSVRMGSHAHPLRRSRREAAFRSPYSSTEPLCSPSESDSDLEPVGAGIQHLQKLSQELDEAIMAEERKQALSDRQGFILKDVYASP
